Measurements published in PMC10556143.
These are yes or no findings as the source states them, for the method shown. Binding seen in cells or lysates may run through a third protein. Some entries that bind do so weakly or less than the wild type.

Chains of the proteins cited; added tags and fusions are not shown. Lines headed by an entry give the natural chain unless they say otherwise; changes in a name come on top. A line that says so, or that is headed by a name, gives the form on record, which may keep a tag or linker.
UniProt P11413: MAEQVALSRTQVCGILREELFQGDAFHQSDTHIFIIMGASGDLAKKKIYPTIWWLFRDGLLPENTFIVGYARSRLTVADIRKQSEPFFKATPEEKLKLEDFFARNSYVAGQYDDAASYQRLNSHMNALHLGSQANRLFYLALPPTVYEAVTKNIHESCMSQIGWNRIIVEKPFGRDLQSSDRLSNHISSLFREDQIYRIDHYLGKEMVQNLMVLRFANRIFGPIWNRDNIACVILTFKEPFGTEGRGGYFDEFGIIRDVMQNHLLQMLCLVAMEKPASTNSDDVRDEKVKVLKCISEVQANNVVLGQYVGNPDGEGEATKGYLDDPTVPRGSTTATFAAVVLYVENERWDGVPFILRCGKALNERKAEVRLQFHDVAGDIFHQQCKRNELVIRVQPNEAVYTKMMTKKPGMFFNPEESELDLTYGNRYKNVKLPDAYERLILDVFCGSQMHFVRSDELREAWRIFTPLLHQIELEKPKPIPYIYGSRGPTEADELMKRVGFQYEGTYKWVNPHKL
Pseudo-wild type G6PD (AcK414), C-terminal 6×His tag (P11413, form named): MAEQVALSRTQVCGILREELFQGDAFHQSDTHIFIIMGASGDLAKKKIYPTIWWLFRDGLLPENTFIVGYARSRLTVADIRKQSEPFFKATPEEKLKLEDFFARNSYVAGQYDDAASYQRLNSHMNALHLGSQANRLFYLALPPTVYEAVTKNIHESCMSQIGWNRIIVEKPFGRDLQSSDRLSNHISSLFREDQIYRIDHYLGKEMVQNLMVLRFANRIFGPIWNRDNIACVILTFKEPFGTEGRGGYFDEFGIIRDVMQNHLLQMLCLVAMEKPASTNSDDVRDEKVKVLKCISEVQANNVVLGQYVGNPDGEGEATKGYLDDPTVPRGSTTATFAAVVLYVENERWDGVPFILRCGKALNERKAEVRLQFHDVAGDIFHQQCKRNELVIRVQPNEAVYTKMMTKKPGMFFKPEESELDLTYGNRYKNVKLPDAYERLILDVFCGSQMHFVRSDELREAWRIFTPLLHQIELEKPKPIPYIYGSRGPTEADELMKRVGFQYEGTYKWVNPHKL
UniProt P06241: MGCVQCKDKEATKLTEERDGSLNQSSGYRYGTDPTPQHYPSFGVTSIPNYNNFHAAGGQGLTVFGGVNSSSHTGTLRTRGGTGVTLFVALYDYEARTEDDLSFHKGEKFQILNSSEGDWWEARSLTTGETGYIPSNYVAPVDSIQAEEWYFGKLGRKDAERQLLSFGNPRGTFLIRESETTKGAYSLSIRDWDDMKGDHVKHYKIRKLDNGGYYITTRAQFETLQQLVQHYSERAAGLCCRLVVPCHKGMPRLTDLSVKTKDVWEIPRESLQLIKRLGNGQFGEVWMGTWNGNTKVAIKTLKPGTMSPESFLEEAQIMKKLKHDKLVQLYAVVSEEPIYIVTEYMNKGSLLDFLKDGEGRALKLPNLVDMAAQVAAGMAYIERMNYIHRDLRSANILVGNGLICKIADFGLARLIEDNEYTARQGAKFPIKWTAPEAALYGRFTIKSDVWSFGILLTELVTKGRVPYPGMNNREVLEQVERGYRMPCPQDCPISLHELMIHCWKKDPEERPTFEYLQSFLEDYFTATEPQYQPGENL

Tests used:
[1] = biological target: K403-acetylated G6PD, C-terminal 6×His tag (human) (UniProt P11413); assay: pull-down; 6×His-tagged G6PD co-expressed with Fyn in E. coli; pull-down of the His tag (Supplementary Fig. 10c)
[2] = biological target: Pseudo-wild type G6PD (AcK414), C-terminal 6×His tag (human) (UniProt P11413); assay: as above

binding [1]: binds
binding [2]: binds
Substance: Fyn (from UniProt P06241 1-537) (enzyme)
